Results deposited as PubChem BioAssay AID1259308 (NCATS, 2017)
Aim: 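Knock-downs that increase output of a recombinant reporter protein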 (primary screen). System: human HEK293 embryonic kidney cells stably expressing firefly luciferase (HEK-CMV-Luc2-Hygro). Reagents: single siRNA against human genes, 0.8 pmol siRNA per well. Duration: 72 h. Read-out: 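Luciferase light (ONE-Glo) measured on one replicate plate set and viability (CellTiter-Glo) on the other, scaled to a negative control siRNA, with robust z-scores and luciferase per cell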. Scale: total luciferase, z-score and total luciferase, % of control: higher = more reporter protein produced. Hit rule: 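Active when the median/MAD z-score for overall luciferase is greater than 3; a gene was taken forward for validation with new siRNAs if at least two of its three siRNAs passed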. Meaning of the calls: active = raised luciferase; inactive = no rise.
In all, the deposit lists about 59,000 reagents; this is a random part of them. Over the whole deposit, about 1,510 (2.6%) are marked active. 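Calls use total luciferase alone and ignore viability, so some active siRNAs may act by altering cell number.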 Entries without a mark were called inactive. Not all columns of the deposit are shown. No sequences are given here.

| gene knocked down | PubChem SID | total luciferase, z-score | total luciferase, % of control |
| --- | --- | --- | --- |
| TSN (GeneID 7247) | SID160718377 | 2.87 | 139 |
| TSN (GeneID 7247) | SID160718378 | 0.672 | 95.3 |
| TSN (GeneID 7247) | SID160718379 | -0.438 | 73.2 |
| HEY1 (GeneID 23462) | SID160730854 | 0.167 | 85.2 |
| HEY1 (GeneID 23462) | SID160736324 | 0.0266 | 82.4 |
| HEY1 (GeneID 23462) | SID160736325 | -0.91 | 63.8 |
| DNAJC27 (GeneID 51277) | SID160740473 | -1.28 | 56.4 |
| DNAJC27 (GeneID 51277) | SID160740474 | 0.22 | 86.3 |
| DNAJC27 (GeneID 51277) | SID160740475 | 1.57 | 113 |
| ZNF35 (GeneID 7584) | SID160719059 | 1.75 | 117 |
| ZNF35 (GeneID 7584) | SID160719060 | -0.295 | 76 |
| ZNF35 (GeneID 7584) | SID160719062 | -0.76 | 66.8 |
| BUD13 (GeneID 84811) | SID160752729 | 1.46 | 111 |
| BUD13 (GeneID 84811) | SID160752730 | -0.597 | 70 |
| BUD13 (GeneID 84811) | SID160752731 | -0.478 | 72.4 |
| LIMK1 (GeneID 3984) | SID160776624 | 0.422 | 90.3 |
| LIMK1 (GeneID 3984) | SID160776625 | 0.247 | 86.8 |
| LIMK1 (GeneID 3984) | SID160776627 | -0.431 | 73.3 |
| SP140L (GeneID 93349) | SID160754476 | 1.82 | 118 |
| SP140L (GeneID 93349) | SID160754477 | 0.14 | 84.7 |
| SP140L (GeneID 93349) | SID160754478 | -1.06 | 60.8 |
| HPSE (GeneID 10855) | SID160729345 | -0.832 | 65.3 |
| HPSE (GeneID 10855) | SID160729346 | 0.56 | 93 |
| HPSE (GeneID 10855) | SID160729347 | -0.547 | 71 |
| E2F6P4 (GeneID 139542) | SID160757707 | -0.514 | 71.7 |
| E2F6P4 (GeneID 139542) | SID160757708 | -0.279 | 76.3 |
| E2F6P4 (GeneID 139542) | SID160757709 | -0.248 | 76.9 |
| ARHGEF18 (GeneID 23370) | SID160736132 | -0.729 | 67.4 |
| ARHGEF18 (GeneID 23370) | SID160736133 | 0.645 | 94.7 |
| ARHGEF18 (GeneID 23370) | SID160736134 | 0.81 | 98 |
| SDHAF3 (GeneID 57001) | SID160745484 | 3.47 (active) | 151 |
| SDHAF3 (GeneID 57001) | SID160745485 | 0.246 | 86.8 |
| SDHAF3 (GeneID 57001) | SID160745486 | 1.05 | 103 |
| IL1RAPL2 (GeneID 26280) | SID160737906 | -1.96 | 42.9 |
| IL1RAPL2 (GeneID 26280) | SID160737907 | 0.0518 | 82.9 |
| IL1RAPL2 (GeneID 26280) | SID160737908 | 1.32 | 108 |
| NAXE (GeneID 128240) | SID160756725 | 0.326 | 88.4 |
| NAXE (GeneID 128240) | SID160756726 | 3.29 (active) | 147 |
| NAXE (GeneID 128240) | SID160756727 | -0.631 | 69.3 |
| FAM237A (GeneID 200726) | SID160760878 | -0.188 | 78.1 |
| FAM237A (GeneID 200726) | SID160760879 | -1.33 | 55.5 |
| FAM237A (GeneID 200726) | SID160760880 | 6.06 (active) | 203 |
| CEP55 (GeneID 55165) | SID160743104 | -0.323 | 75.5 |
| CEP55 (GeneID 55165) | SID160743105 | 0.805 | 97.9 |
| CEP55 (GeneID 55165) | SID160743106 | -2.06 | 40.8 |
| CD52 (GeneID 1043) | SID160732277 | 1.07 | 103 |
| CD52 (GeneID 1043) | SID160741395 | 1.42 | 110 |
| CD52 (GeneID 1043) | SID160741405 | -0.336 | 75.2 |
| SLC19A1 (GeneID 6573) | SID160716974 | -0.612 | 69.7 |
| SLC19A1 (GeneID 6573) | SID160716975 | -0.643 | 69.1 |
| SLC19A1 (GeneID 6573) | SID160716976 | 0.819 | 98.2 |
| ANKRD17 (GeneID 26057) | SID160737554 | -0.593 | 70.1 |
| ANKRD17 (GeneID 26057) | SID160737556 | 1.89 | 120 |
| ANKRD17 (GeneID 26057) | SID160737557 | -0.689 | 68.2 |
| RILPL2 (GeneID 196383) | SID160760598 | -0.51 | 71.7 |
| RILPL2 (GeneID 196383) | SID160760599 | 0.0868 | 83.6 |
| RILPL2 (GeneID 196383) | SID160760600 | -0.204 | 77.8 |
